# About 7,500 (2.1%) of roughly 360,000 compounds were called active. The shares of active, inactive and inconclusive entries below differ from those in the screen. The call rests on the fitted dose curve; in most records, active means well fitted inhibition curve with a large enough effect; inconclusive means small, poorly fitted or top-dose-only effect, or effect the other way; inactive means flat fitted curve, though single readings scatter. Where the call is inconclusive, the potency comes from a doubtful curve fit.
# Test: Nrf2 qHTS screen for inhibitors; further: nearly all actives have a fitted effect of over 60% in size
# Conditions: A549 ARE-Fluc reporter, luciferase luminescence, 18-24 h; activity change, negative = inhibition: at 46 µM (top of the series)
# Outline: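 Nrf2 function is reported as luminescence of an ARE-controlled luciferase in A549 cells. Compounds were tested at several concentrations, and a CellTiter-Fluor read on the same wells flagged cytotoxicity.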
# On the % scale 0 is the no-effect control and ±100 the full control effect; potency means the concentration at half of the fitted maximal effect.
SMILES,"activity change, negative = inhibition",Potency
N#Cc1c(NC(=O)c2cccnc2)sc2c1CCC2,inactive: 10%,–
O=[N+]([O-])c1cccc(/C=N/N2CCN(Cc3ccccc3)CC2)c1,–,"inconclusive: 14.6 µM [activator, partial curve, poor fit]"
Cc1cccc(NC(=S)NCc2ccc3c(c2)cc(C)n3C)c1C,inactive: -14.5%,–
CCn1c(=O)c2ccccc2n(Cc2cccc(C)c2)c1=O,–,"inconclusive: 2.91 µM [falling, full curve, poor fit]"
CCCCN(Cc1ccco1)C(=O)C1CCCN(c2ncnc3c2nc2n3CCCCC2)C1 (centres undefined),–,"inconclusive: 29.1 µM [falling, single point]"
COc1cccc(N2C(=O)CSC23C(=O)N(Cc2ccccc2F)c2ccccc23)c1 (centres undefined),–,"inconclusive: 29.1 µM [falling, single point]"
Cn1ccnc1SCC(=O)c1cc2ccccc2o1,–,"inconclusive: 3.26 µM [activator, full curve]"
Cc1cc(N)n2ncc(-c3ccc(F)cc3)c2n1,–,"inconclusive: 10.3 µM [activator, partial curve]"
COc1nc(-c2ccccc2)ccc1-c1noc(COc2ccccc2)n1,inactive: -3.92%,–
CCN(C(=O)C(C)N1C(=O)/C(=C/c2ccco2)SC1=S)C1CCS(=O)(=O)C1 (centres undefined),–,"inconclusive: 25.9 µM [falling, single point]"
CCn1nnc(-c2ccccc2NC(=O)c2cnccn2)n1,–,"inconclusive: 29.1 µM [falling, single point]"
Cc1cccc(C(=O)Nc2ccc3c(c2)nc(C)n3C)c1,–,"inconclusive: 4.61 µM [activator, full curve]"
C/C(=N\Nc1nc(C)cc(-c2ccccc2)n1)c1ccc(F)cc1,–,"inconclusive: 10.3 µM [falling, partial curve, poor fit]"
CCn1nc([N+](=O)[O-])c(C(C#N)c2nc3ccccc3n2C)c(Cl)c1=O (centres undefined),inactive: 0.0637%,–
Cc1ccc(/C(O)=C2\C(=O)C(=O)N(c3cc(C)on3)C2c2cccc(Cl)c2)cc1 (centres undefined),–,"inconclusive: 16.4 µM [falling, single point]"
Cc1ccccc1Nc1nc2ccccc2s1,–,"inconclusive: 5.8 µM [activator, partial curve]"
COc1ccc2c(CNCCc3ccccc3OC)c(C(=O)O)n(Cc3ccc(F)cc3Cl)c2c1,–,"inconclusive: 29.1 µM [falling, single point]"
COc1ccc(C2=NS(=O)(=O)N(C)C(C(=O)NC(C)c3ccccc3)=C2)cc1OC (centres undefined),–,"inconclusive: 23.1 µM [activator, partial curve, poor fit]"
CC1=C(C(=O)OC2CCCC2)C(c2ccc(Cl)cc2)CC(=O)N1 (centres undefined),–,"inconclusive: 20.6 µM [falling, single point]"

# Sorted by length of the SMILES (low to high): 3 of the compounds above.
SMILES,"activity change, negative = inhibition",Potency
Cc1cccc(C(=O)Nc2ccc3c(c2)nc(C)n3C)c1,–,"inconclusive: 4.61 µM [activator, full curve]"
Cc1cccc(NC(=S)NCc2ccc3c(c2)cc(C)n3C)c1C,inactive: -14.5%,–
Cc1ccc(/C(O)=C2\C(=O)C(=O)N(c3cc(C)on3)C2c2cccc(Cl)c2)cc1 (centres undefined),–,"inconclusive: 16.4 µM [falling, single point]"
